PubChem BioAssay AID504744, Drosophila RNAi Screening Center | 2011
Purpose: 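Find genes whose loss alters insulin-driven dAkt phosphorylation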 (primary screen). Cells: Drosophila Kc167 cells. Reagent: long dsRNA against Drosophila genes, 250 ng dsRNA per well of a 384-well plate. Timing: 3 days of knock-down, then overnight serum-free starvation before stimulation. Treatment: bovine insulin at 387 nM for 10 minutes after 12 h without serum. Measured: 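Per-well phospho-dAkt level from an in-cell fluorescent antibody stain, divided by a DNA-dye signal; log2 residuals turned into z-scores that take cell number into account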. Hit rule: 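Under insulin, a gene counts as a hit if the average z-score of two replicates lies above 2.5 or below -2.5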.
In all, the deposit lists about 23,000 reagents; shown is an unselected part of those that have a named target and a result. In the full data, 98 (0.43%) got an active call. 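Only hit calls are given; the phospho-dAkt signals, z-scores and hit direction were not deposited.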 Names joined by + are all predicted targets of the reagent. No sequences are given here.

The first 16 entries, ahead of the listing:
gene,amplicon,activity call
CG4752,DRSC04486,inactive
CG18870,DRSC04313,inactive
CG14115,DRSC10118,inactive
CG15358,DRSC00388,inactive
CG9541,DRSC03257,inactive
Cpr49Aa (Cuticular protein 49Aa),DRSC07197,inactive
Cad99C (Cadherin 99C),DRSC15050,inactive
Cad99C (Cadherin 99C),DRSC16317,inactive
unc-13-4A,DRSC10201,inactive
unc-13-4A,DRSC10202,inactive
unc-13-4A,DRSC10203,inactive
unc-13-4A,DRSC11013,inactive
Lsm10,DRSC06250,inactive
CG13392,DRSC02262,inactive
Eig71Ef (Ecdysone-induced gene 71Ef),DRSC11153,inactive
"Smyd4-1 (SET and MYND domain containing, class 4, member 1)",DRSC06785,inactive

Results, from the start:
gene,amplicon,activity call
CG4752,DRSC04486,inactive
CG18870,DRSC04313,inactive
CG14115,DRSC10118,inactive
CG15358,DRSC00388,inactive
CG9541,DRSC03257,inactive
Cpr49Aa (Cuticular protein 49Aa),DRSC07197,inactive
Cad99C (Cadherin 99C),DRSC15050,inactive
Cad99C (Cadherin 99C),DRSC16317,inactive
unc-13-4A,DRSC10201,inactive
unc-13-4A,DRSC10202,inactive
unc-13-4A,DRSC10203,inactive
unc-13-4A,DRSC11013,inactive
Lsm10,DRSC06250,inactive
CG13392,DRSC02262,inactive
Eig71Ef (Ecdysone-induced gene 71Ef),DRSC11153,inactive
"Smyd4-1 (SET and MYND domain containing, class 4, member 1)",DRSC06785,inactive
CG14419,DRSC17916,inactive
mio (missing oocyte),DRSC00692,inactive
mio (missing oocyte),DRSC22056,inactive
Pp1-13C (Protein phosphatase 1 at 13C),DRSC20269,inactive
Pde6 (Phosphodiesterase 6),DRSC16401,inactive
Pde6 (Phosphodiesterase 6),DRSC16402,inactive
Pde6 (Phosphodiesterase 6),DRSC16403,inactive
Arc2 (Activity-regulated cytoskeleton associated protein 2),DRSC06436,inactive
Pgant3 (Polypeptide N-Acetylgalactosaminyltransferase 3),DRSC05942,inactive
CG10553,DRSC14254,inactive
CG15177,DRSC12557,inactive
ND5 (retired record),DRSC21281,inactive
CG13075,DRSC09958,inactive
msb1l,DRSC03572,inactive
CG4455,DRSC01983,inactive
CG4455,DRSC21684,inactive
comr (cookie monster),DRSC04138,inactive
uzip (unzipped),DRSC04722,inactive
Hs3st-B (Heparan sulfate 3-O sulfotransferase-B),DRSC20067,inactive
alpha-Est9 (alpha-Esterase-9),DRSC12621,inactive
CG34430,DRSC06499,inactive
Trf5 (TBP-related factor 5),DRSC00412,inactive
CtsF (Cathepsin F),DRSC12056,inactive
CtsF (Cathepsin F),DRSC12195,inactive
CtsF (Cathepsin F),DRSC12196,inactive
I-2 (Inhibitor-2),DRSC11194,inactive
CG34227,DRSC06788,inactive
CG34227,DRSC07034,inactive
Arglu1 (Arginine and glutamate rich 1),DRSC02909,inactive
Pino (Pinocchio),DRSC00038,inactive
Pino (Pinocchio),DRSC00662,inactive
Gr98c (Gustatory receptor 98c),DRSC22212,inactive
CG8607,DRSC11012,inactive
CG9399,DRSC16488,inactive
dre4,DRSC08714,inactive
CG17977,DRSC06700,inactive
CG4480,DRSC02750,inactive
ldd (lipid droplet defective),DRSC20558,inactive
ldd (lipid droplet defective),DRSC22696,inactive
AQP (aquaporin),DRSC06122,inactive
Coq3 (Coenzyme Q3),DRSC03168,inactive
CycB (Cyclin B),DRSC04605,inactive
CG31419,DRSC15771,inactive
CG15263,DRSC01974,inactive
sn (singed),DRSC18834,inactive
LPCAT (Lysophosphatidylcholine acyltransferase),DRSC18157,inactive
LPCAT (Lysophosphatidylcholine acyltransferase),DRSC18257,inactive
CG18631 (retired record),DRSC06779,inactive
VhaM9.7-c (Vacuolar H[+] ATPase M9.7 subunit c),DRSC08204,inactive
slv (saliva),DRSC07685,inactive
Jhbp6 (Juvenile hormone binding protein 6),DRSC11714,inactive
slpr (slipper),DRSC18225,inactive
kek6 (kekkon 6),DRSC15299,inactive
CG8229 + CG33199,DRSC05134,inactive
CG34423 + Mthfs,DRSC04088,inactive
Ggamma1 (G protein gamma subunit 1),DRSC07435,inactive
CG42365,DRSC04266,inactive
Obp99d (Odorant-binding protein 99d),DRSC15046,inactive
dop (drop out),DRSC10655,inactive
Uck (Uridine-cytidine kinase),DRSC13661,inactive
Uck (Uridine-cytidine kinase),DRSC16028,inactive
Tsp42Eo (Tetraspanin 42Eo),DRSC06184,inactive
CG30048,DRSC22205,inactive
CG12054,DRSC14467,inactive
CarT (Carcinine transporter),DRSC03196,inactive
Ak6 (Adenylate kinase 6),DRSC07274,inactive
TwdlT (TweedleT),DRSC16677,inactive
TwdlT (TweedleT),DRSC21540,inactive
Prosbeta6 (Proteasome beta6 subunit),DRSC11256,inactive
CG8641,DRSC11028,inactive
PPYR1 (Protein phosphatase Y regulator 1),DRSC19612,inactive
RpL23A (Ribosomal protein L23A),DRSC08694,inactive
RpL23A (Ribosomal protein L23A),DRSC22035,inactive
CG10694,DRSC14263,inactive
CG6724,DRSC02983,inactive
Elo68alpha (Elongase 68alpha),DRSC22725,inactive
CG14342,DRSC00372,inactive
CG14632 (retired record),DRSC17942,inactive
CG3795,DRSC18593,inactive
TkR99D (Tachykinin-like receptor at 99D),DRSC16881,inactive
Dscam4 (Down syndrome cell adhesion molecule 4),DRSC08911,inactive
Dscam4 (Down syndrome cell adhesion molecule 4),DRSC08913,inactive
Dscam4 (Down syndrome cell adhesion molecule 4),DRSC10031,inactive
Dscam4 (Down syndrome cell adhesion molecule 4),DRSC10329,inactive
Dscam4 (Down syndrome cell adhesion molecule 4),DRSC10765,inactive
gro (groucho),DRSC16962,inactive
polyph (polyphemus),DRSC06254,inactive
CG10591,DRSC09748,inactive
ago (archipelago),DRSC08463,inactive
l(1)10Bb (lethal (1) 10Bb),DRSC20346,active
NfI (Nuclear factor I),DRSC17158,inactive
ND-24 (NADH dehydrogenase (ubiquinone) 24 kDa subunit),DRSC19960,inactive
CG17028,DRSC10239,inactive
CG5122,DRSC02816,inactive
RNaseZ (Ribonuclease Z),DRSC06845,inactive
CG31782 (retired record),DRSC01554,inactive
CG31782 (retired record),DRSC01556,inactive
CG32631,DRSC19768,inactive
CG9497,DRSC03234,inactive
Jhbp3 (Juvenile hormone binding protein 3),DRSC12247,inactive
CG1690,DRSC06636,inactive
Hrb98DE (Heterogeneous nuclear ribonucleoprotein at 98DE),DRSC16709,inactive
Cpr92A (Cuticular protein 92A),DRSC16000,inactive
flr (flare),DRSC09787,inactive
Or42b (Odorant receptor 42b),DRSC04913,inactive
CG5447,DRSC15801,inactive
CG4658,DRSC02768,inactive
Rbp1 (RNA-binding protein 1),DRSC16817,inactive
CG4935,DRSC01924,inactive
CG13049,DRSC09930,inactive
CG6204,DRSC15991,inactive
euc (eucalyptus),DRSC14492,inactive
CG6262,DRSC06971,inactive
wap (wings apart),DRSC20626,inactive
tkv + CR14033 + tRNA:Asp-GTC-2-1 + 1 more,DRSC00861,inactive
CG15673,DRSC04263,inactive
wech,DRSC06606,inactive
jp (junctophilin),DRSC02213,inactive
jp (junctophilin),DRSC02744,inactive
mRpS22 (mitochondrial ribosomal protein S22),DRSC14488,inactive
CG8757,DRSC11039,inactive
Hmbs (Hydroxymethylbilane synthase),DRSC08632,inactive
CG13950,DRSC00368,inactive
CG32260,DRSC08084,inactive
DNAlig3 (DNA ligase 3),DRSC15201,inactive
P58IPK,DRSC16404,inactive
Tsf3 (Transferrin 3),DRSC06849,inactive
Ravus,DRSC15126,inactive
Ada1-1 + Ada1-2,DRSC01220,inactive
Ada1-1 + Ada1-2,DRSC01222,inactive
ana1 (anastral spindle 1),DRSC16079,inactive
ana1 (anastral spindle 1),DRSC21825,inactive
moi + Tgs1,DRSC16371,inactive
Sas10 (Something about silencing 10),DRSC18355,inactive
ssp3 (short spindle 3),DRSC02669,inactive
ssp3 (short spindle 3),DRSC02670,inactive
CG11458,DRSC11666,inactive
Klp64D (Kinesin-like protein at 64D),DRSC11204,inactive
vlc (vulcan),DRSC04922,inactive
Proc (Proctolin),DRSC03009,inactive
ERR (estrogen-related receptor),DRSC10840,inactive
